According to the supplement of paper PMC4604168 (melanoma cell lines):
The other results are listed elsewhere or left out. Repeats are few or missing, and single values can be far off.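 Imaging used 1,536-well plates; nuclei positive for cleaved PARP by antibody were divided by total DNA-stained nuclei to yield the apoptosis fraction. Doses for screening kept most cells viable, and cell lines differ markedly in resting and induced cleaved-PARP levels.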

The compounds below were run on UACC62 (assay: cleaved PARP positive nuclei fraction relative to DMSO control; melanoma cells; higher = more apoptosis). Details: library dose: low library concentration; 72 h.

Structure (SMILES) | cleaved PARP positive nuclei fraction
Cn1sc(=O)n(Cc2ccccc2)c1=O + CN(c1ncccc1CNc1nc(Nc2ccc3c(c2)CC(=O)N3)ncc1C(F)(F)F)S(C)(=O)=O [PF562271] (first compound 0.4 µM, partner dose 0.08 µM) | 61.8%
CC1(C)CCC(c2ccc(Cl)cc2)=C(CN2CCN(c3ccc(C(=O)NS(=O)(=O)c4ccc(N[C@H](CCN5CCOCC5)CSc5ccccc5)c(S(=O)(=O)C(F)(F)F)c4)cc3)CC2)C1 + OCc1c[nH]c2ccccc12 [Indole-3-carbinol] (first compound 0.4 µM, partner dose 0.8 µM) | 83.5%
CC(=O)O[C@@]12CO[C@@H]1C[C@H](O)[C@@]1(C)C(=O)[C@H](O)C3=C(C)[C@@H](OC(=O)[C@H](O)[C@@H](NC(=O)OC(C)(C)C)c4ccccc4)C[C@@](O)([C@@H](OC(=O)c4ccccc4)[C@H]21)C3(C)C [Docetaxel] + NC1(c2ccc(-c3nc4ccn5c(=O)[nH]nc5c4cc3-c3ccccc3)cc2)CCC1 [MK2206] (first compound 0.0001 µM, partner dose 0.4 µM) | 655%
C[C@]1(O)C[C@@H](c2nc(-c3ccc4ccc(-c5ccccc5)nc4c3)c3c(N)nccn32)C1 + Nc1cccc2c1CN(C1CCC(=O)NC1=O)C2=O [lenalidomide] (first compound 0.4 µM, partner dose 1 µM) | 210%
C[C@@H](N)c1ccc(C(=O)Nc2ccnc3[nH]ccc23)cc1 + C=CCNC1=C2C[C@@H](C)C[C@H](OC)[C@H](O)[C@@H](C)/C=C(\C)[C@H](OC(N)=O)[C@@H](OC)/C=C\C=C(/C)C(=O)NC(=CC1=O)C2=O [Tanespimycin] (first compound 0.4 µM, partner dose 0.002 µM) | 306%

What follows are compounds tested on WM115 in the same assay as above. Details: library dose: low library concentration; 72 h.

Structure (SMILES) | cleaved PARP positive nuclei fraction
NC(=O)c1ccc(N(C(N)=O)c2c(F)cccc2F)nc1-c1ccc(F)cc1F + Nc1nc(F)nc2c1ncn2[C@@H]1O[C@H](CO)[C@@H](O)[C@@H]1O [fludarabine] (first compound 0.4 µM, partner dose 0.2 µM) | 158%
Cn1sc(=O)n(Cc2ccccc2)c1=O + CNC(=O)c1cc(Oc2ccc(NC(=O)Nc3ccc(Cl)c(C(F)(F)F)c3)cc2)ccn1 [sorafenib] (first compound 0.4 µM, partner dose 0.4 µM) | 97.6%
COc1ccc(C2=N[C@@H](c3ccc(Cl)cc3)[C@@H](c3ccc(Cl)cc3)N2C(=O)N2CCNC(=O)C2)c(OC(C)C)c1 [Nutlin-3] + CN(c1ncccc1CNc1nc(Nc2ccc3c(c2)CC(=O)N3)ncc1C(F)(F)F)S(C)(=O)=O [PF562271] (first compound 0.1 µM, partner dose 0.08 µM) | 148%
CN(c1ncccc1CNc1nc(Nc2ccc3c(c2)CC(=O)N3)ncc1C(F)(F)F)S(C)(=O)=O + Cn1c(=O)n(-c2ccc(C(C)(C)C#N)cc2)c2c3cc(-c4cnc5ccccc5c4)ccc3ncc21 [NVP-BEZ235] (first compound 0.08 µM, partner dose 0.004 µM) | 183%
Cn1sc(=O)n(Cc2ccccc2)c1=O + CCN(CC)CCNC(=O)c1c(C)[nH]c(/C=C2\C(=O)Nc3ccc(F)cc32)c1C [sunitinib] (first compound 0.4 µM, partner dose 0.4 µM) | 79.4%
CC1(C)CCC(c2ccc(Cl)cc2)=C(CN2CCN(c3ccc(C(=O)NS(=O)(=O)c4ccc(N[C@H](CCN5CCOCC5)CSc5ccccc5)c(S(=O)(=O)C(F)(F)F)c4)cc3)CC2)C1 + Cc1nc(Nc2ncc(C(=O)Nc3c(C)cccc3Cl)s2)cc(N2CCN(CCO)CC2)n1 [dasatanib] (first compound 0.4 µM, partner dose 0.004 µM) | 384%
Cn1cnc2c(F)c(Nc3ccc(Br)cc3Cl)c(C(=O)NOCCO)cc21 [selumetinib] + Cn1c(Nc2ccc(C(F)(F)F)cc2)nc2cc(Oc3ccnc(-c4ncc(C(F)(F)F)[nH]4)c3)ccc21 [CHIR265] (first compound 0.015 µM, partner dose 0.08 µM) | 1080%
C[C@@H](N)c1ccc(C(=O)Nc2ccnc3[nH]ccc23)cc1 + Nc1ncn([C@H]2C[C@H](O)[C@@H](CO)O2)c(=O)n1 [decitabine] (first compound 0.4 µM, partner dose 0.1 µM) | 125%
